No constants are given. Whether binding was seen depends on the method and setting. Binding seen in cells or lysates may run through a third protein. Here binding means that the protein was enriched with, or labelled near, the bait; the list need not be complete. Where a sequence is shown, tags or fusion partners need not be part of it.
T1: FtsZ-GFP (Synechococcus elongatus PCC7942) (UniProt O85785)
T1 sequence: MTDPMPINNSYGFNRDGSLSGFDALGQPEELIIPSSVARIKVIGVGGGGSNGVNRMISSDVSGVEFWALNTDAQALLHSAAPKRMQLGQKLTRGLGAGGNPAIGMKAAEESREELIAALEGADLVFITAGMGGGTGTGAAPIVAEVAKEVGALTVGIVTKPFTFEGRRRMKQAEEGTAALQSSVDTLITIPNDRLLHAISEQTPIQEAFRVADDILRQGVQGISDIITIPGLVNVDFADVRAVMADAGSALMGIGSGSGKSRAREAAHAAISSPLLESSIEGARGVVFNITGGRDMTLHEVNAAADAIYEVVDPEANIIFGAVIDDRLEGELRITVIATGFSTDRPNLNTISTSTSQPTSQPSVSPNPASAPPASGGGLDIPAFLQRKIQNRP


Target: T1, FtsZ-GFP (Synechococcus elongatus PCC7942)
Assay: affinity purification with mass spectrometry; FtsZ-GFP as bait; total protein extracts (4 mg/IP) of S. elongatus cells of the exponential, stationary and late stationary phase; anti-GFP antibody-coupled magnetic beads, trypsin digest in column, LC-MS/MS; non-antibody and GFP negative controls; three repetitions

Binder	binding
L29 (protein, UniProt Q31L15 1-64) MALPKIEDVRNLSDADLAEKIAEAKRELFDLRFQRATRQLEKPHLFKHTKHRLAQLLTVERERQ	binds
L7/12 (protein, UniProt Q31QK6 1-128) MSAKTDEILESLKTLTLLEAAELVKQIEEAFGVSAAAPVGGVVVAAAAGAAAEAVEEKTEFDVVLEEVPADKKIAVLKVVRGITGLGLKEAKDLVEAAPKPIKEGVSKDDAEAAKKELEEAGAKVSVK	binds
50S rib. prot L18 (protein, UniProt Q31L22 1-120) MKVSRRESTRRRHRRVRRTIVGTPARPRLSVFRSNNHIYAQVIDDAAGHTLAAASSLDPDLRQSLTSGGNQQASAAVGKLIAERAQAKGVTTVVFDRGGNLYHGRVKALAEAAREAGLEF	binds
L20 (protein, UniProt Q31NR2 1-116) MARVKRGNVARKRRNKILKLAKGFRSGNSKLFRTANQRVMKALTNAYRDRRRRKRDFRRLWIARINAAARLHGVSYSRLIGALKKADIQINRKMLAQLAVLDSAGFKAIVDLALKA	binds
ATPase (protein, UniProt Q31PP8 1-569) MLRLDRISKIYPTGEVLRDVSWEVKPGDRIGLVGVNGAGKSTQMRIIAGLEEATSGEIIRPSSLKIAYLQQEFDIDPERTVREELWQAFGEATTVFNQLSEVEHQMQTAEPEQLDDLIHQLDRLQRRFEALDGYAIDARIAKLLPDLGFGLEDGDRSVAAFSGGWQMRMGLGKILLQEPDLLLLDEPTNHLDLETIEWLETYLKGLSQPMVIISHDREFLDRLCTQIVETERGVARTYLGNYSDYLTQKELEKTAQFAAFERQQKELAEQQAFIDRFRASATRSTQAKSREKQLEKVERIEAPEDNLRGIQFRFPPAPRSGREVVMIEDLTHAYNDKILFLGAELLIERGDRIAFLGPNGAGKSTLLRLILGREPLLEGKVELGAHQVIPSYFEQNQAEALDLEKTVLDTIHDEVPSWKDSEVRTLLGSFCFRSDTVFKKVGALSGGEKARLALAKMLLQPANLLILDEPTNHLDIPAKEMLEEALREYEGTALIVSHDRYFVSRVANKIVEIRDGEFRVYAGDYHYYLEQIQLKKERERLAAIEAEKASKAAAKRAKQKAKQQERRQS	binds
30S rib prot S6 (protein, UniProt Q31SC5 1-107) MKDFYYETMYILRADLTEEQVEQAIAKYQTLLTEAGAEVQDTQHRGKRRLAYLINKQREGIYVQINYTGDGSQIAPLERALRLSEEVLRFLTVKQEVRPPAPVAVEA	binds

Next, values leading:

binding	Binder
binds	DNA gyrase subu B (protein, UniProt Q8GIT7 1-645) MANEYGASQIQVLEGLEPVRKRPGMYIGSTGPKGLHHLVYEVVDNAVDEALAGYCNTIDVRLLEDGSCQVTDNGRGIPTDIHPQTGKSALETVLTILHAGGKFGGGGYKVSGGLHGVGVSVVNALSEYVEVTVWREGKTHQQRFEQGNPIGELQVAPDADDRRGTQVRFKPDATIFSETTEFDYGTLASRLKELAYLNAGVRIDFTDERLQLTKNHEPHQETYYFEGGIREYVAYMNTDKQALHSEIIFVQSEKDGVQVEAALQWCVDAYSDNILGFANNIRTIDGGTHIEGLKTVLTRTMNTIARKRNKRKDADNNLSGENIREGLTAIVSVKVPDPEFEGQTKTKLGNTEVRGIVDTLVGETLTEYLEFHPSVADLILEKAIQAFNAAEAARRARELVRRKSVLESSTLPGKLADCSSRDPGESEIFIVEGDSAGGSAKQGRDRRFQAILPLRGKILNIEKTDDAKIYKNTEIQALITALGLGIKGEEFDASQLRYHRIVIMTDADVDGAHIRTLLLTFFYRYQRSLLEQGYIYIACPPLYKLERGRNHYYCYNERELQERIATFPENANYTIQRFKGLGEMMPQQLWETTMDPETRTMKRVEIEDAAEADRIFTILMGDRVQPRREFIETYGPQLSMAALDI
binds	DNA polI (protein, UniProt Q31RU3 1-953) MSVDSPLLLLVDGHSLAFRSYYAFAKGRDGGLRTRTGIPTSVCFGFLKALLEVMEQQQPKALAIAFDLGGPTFRHEADENYKANRDEAPEDFKIDTDNLVALLQTLNLPILVEPGYEADDLLGTVAQRGAEAGYRVRILSGDRDLFQLVDPEGAIRVLYLGNTFGRSANREAAREIDPAAVIDKLGVPPEQVIDFKALCGDSSDNIPGVKGIGPKTAVDLLQAWGDLDRIYDNLEAIKPAVRKKLESDREAAYHSRKLAQIVTDIPLAIDWDHYALTGFDEQEVLPWLEKLELQAFRRQVDRLQQLFGGQPPTVEALSDESLDFWTAEETAAQQPRWPQLQPQIITTAAALTDLVTLLEQRDSPEAIVAWDTETTDLDPRLAQLVGIGCAWGEEPDQLAYIPLGHEEGEQLPLQTVLTALRPILESDRHPKALQNAKFDRLILRHQGIELAGVVFDTMLASYLLNPSLGHSLDALADRWLKLQTRSYSDLVPKGKTIAQVAIAAVAQYCGSDVHVVQRLIPLLKAGIAESPALQFLLETVELPLEAVLAEMEDRGIRIDEGYLAELSEHLKGELDRLEGAAHTLAGDRFNLGSPKQLSELLFEKLGLNVKKSRKTKTGYSTDAAVLEKLQGDHPIIDLILEHRTLAKLKSTYVDALPSLVAADGRIHTDFNQAVTATGRLSSSNPNLQNIPIRTEFSRQIRKAFLPREGWLLAAADYSQIELRILAHLSQEPVLLEAYRQGDDVHRLTASLLFDREEITSEERRIGKIINFGVIYGMGAQRFARETGSSTKEAQGFIDRFYDRYPRVFTYLQSLERQAIARGYVETVLGRRRYFDFEDTGLQKLRGSDPESIDLDKIRPSRFEAQLLRAAANAPIQGSSADIIKVAMVQLQALLQSYQARMLLQVHDELVLELPPEEWDSLAPQIQQTMEQAVQLTVPLAVELHAGHNWMEAK
binds	SphX (protein, UniProt P39665 31-337) SAQRALVTADGSSTVFPISEAVAEEFQKRNKNINVTVGVSGTGGGFKRFCNGEIDIANASRPIKKEEVEACRKKGIRYIELPVAFDALTVVVNKSNPVNSITTAELAKIFGRDAEKKTTNWRQVKSSFPNLPLRVYAPGTDSGTYDYFNEAILNKKGTRGDLTASEDDNILVQGVSRDRGGIGFFGFSYYEENKGKLKALAVVNSNGKAVMPSVQNVLNGTYDPLARPVFIYVSEQAAKKANVRSFVNFYLQNAGKLSREVGFVPLPAKAYTAATQRFRSNKTGTVFAGKSLVGGSIEDLLKAEGIN
binds	DNA gyrase subu A (protein, UniProt Q31RN3 1-856) MSAQERIIQTDLRNEMSRSYLEYAMSVIVGRALPDARDGLKPVHRRILYAMYELGLTPDRPFRKCARVVGEVLGKYHPHGDTAVYDALVRMAQDFSMRSPLIDGHGNFGSIDNDPPAAMRYTESRLKPLTTDGLLQDIEAETVDFSDNFDGSQQEPTVLPARLPQLLLNGSSGIAVGMATNIPPHNPTELIAGVIALIHNPEISDRELMRHIPGPDFPTGGQVLGSAGIRDAYLTGKGSITMRGVATIDTIEAPGRPVRDAIIITELPYQTNKAALIERIAEMVNEKRLEGISDIRDESDRDGMRIVIELKRDAYPQVVLNNLYKQTPLQSNFSANMLALVDGEPVLLTLKRSLEVFLDFRIETIERRTRYELRKAEERDHLLQGLLIALGNLDAIIELIRRSADAPRAKQELIDVYGLSEVQSDAILQMQLRRLTALEAEKIEQEHQDLQRRIEDYRDILARRERVLEIIETELEQLQQRFQEPRRTTLLEADGELETIDLIANEKSILLLTQQGYIKRMPVNEFTAQSRGTRGKAGAKTKDDDSVEHFLTCCDHDNILFFSDRGVVYNLPAYRIPAASRNARGVPIVQLLPIPREERITSIVPVSAFSDDEYLVMLTQGGYIKKTALSAFANIRSNGLIAIALSEGDQLRWVRLAKPEDSILIGSRKGMTIHFRASHDDLRPLGRATRGVRAMSLRSGDTLISMDVLPASLTANMTETGDEDEADDAVEVVASPGPWVLVVTAQGLGKRVPVHQFRLQKRAGLGLRAIKFRSKQDELVSLRIVESGDELVMISQRSVIIRQASDAIPQQSRAATGVRVQRLDADDVLAAVALVPPGEEELDETSEDAIASDEPN
binds	MreB (protein, UniProt Q31RI7 1-345) MSILRRFSLSRDMGIDLGTANTLVYVSGKGIVLQEPSVVAIDQNLKKPLAVGSEAKLMLGRTPGSVAALRPLRDGVIADFDAAELMLKHFIRQVQEGRSGVARVVIGIPSGVTGVERRAVMEAATQAGAREVYLIDEPVAAAIGAGLPVAEPTGTMIVDIGGGTTEVAVMSLQGIVLSDSVRVAGDELSEAIAQYLKKVHNLVIGERTSEEIKIMVGSAFPDNEFDETTMEVRGLHLLSGLPRTVTIKAAEVRESMAEPLNVIVEAVKRTLEKTPPELAADIVDRGIVLAGGGALVRGLDELISHETGIITHIAPDPLSCVVLGTGRVLENFKSLERVFSASSRA
binds	Bicarbonate transport (protein, UniProt Q55107 1-663) MSLFVAVENIEKSFPLSGGNEYLALKGIDLEIKQGEFISLIGHSGCGKSTLLNLIAGLELPTDGAVSLEGQQITAPGPDRMVVFQNYSLFPWLTVRENIALAVDEVLRDLPKEERQAIVEEHIQLVGLGHAADKPPAQLSGGMKQRVAIARGLATRPKLLLLDEPFGALDALTRGNLQEKLMQICEENHVTAVMVTHDVDEAVLLSDRIVMLTNGPGSKIGGILEVDIPRPRKRMDVVHHPSYYSLRSEIIYFLNQQKRVKKLNARKVTTVARHGLEKVNLEIGYVPLMACAPLVVAQEKAFFAKHGLDEVSLVRETSWRGIVDGLTENYLDAAQMPAGMPVWMSVGGQGGSPLPIVSSLTMSRNGNGITLSKALYDEGIQTVDDFRNLLRSTADKQHIMGIVHPASMHNLLLRYWLAANQIDPDRDVQLRTIPPAQMVADLKDGTIDGYCIGEPWNAWAAQKEIGFTIASDLEIWNGHPGKVLGVREDWANRYPNSHVALVKALLEACQYCEDPANWDELRELLSDRRYLSCPKEYIQFSQSTADDLAVPHHRFAGAGVNRPSRTEHLWMMTQLARWGDVPFPRNWVEILERVCRVGVFSTAARELGLSEVVNYQRSTPVELFDGVPFNAEDPIAYLNSLPIHRDFSVAEIALDQPRPIAAA
binds	Inorganic pyrophosphatase (protein, UniProt Q31NF6 1-170) MDLSRIPAQPKPGLVNVLIEIPGGSKNKYEFDKDLNAFALDRVLYSSVQYPYDYGFIPNTLADDGDPLDGMVILDQPTFPGCVIAARPIGMLEMIDGGDRDEKLLCVPAKDPRYAEVKTLSDLAPHRLEEIAEFFRSYKNLEKKVTEILGWKGPETVQALVDECIKAYNA

Source: publication PMC10217356
